Test results: paper PMC12000511, “Molecular basis for the assembly of the Vps5-Vps17 SNX-BAR proteins with Retromer” (Nature Communications, 2025)

Molecular target: mouse VPS29 (mVPS29), long isoform (mouse)
Assay: crystal structure; co-crystallisation of mVps29 with sixfold molar excess of ctVps5(71–80) peptide; hanging drop, 20 °C; 1.7 Å; both purified

binding: binds
Binder: DDPLGPLGA [ctVps5_(71–80) peptide]

No constants are given. Whether binding was seen depends on the method and setting. Binding calls can cover weak binding; strength is not graded here.
